These are yes or no findings as the source states them, for the method shown. Binding seen in cells or lysates may run through a third protein. These calls come from enrichment with a bait or labelling near it, and not all partners need be listed. Tags and fused reporters may be left off the sequences shown. Each block holds one molecule with its values, some of them ahead of it.
Biological target: T1, GFP-tagged ADAR1p110 (UniProt P55265)
T1 sequence: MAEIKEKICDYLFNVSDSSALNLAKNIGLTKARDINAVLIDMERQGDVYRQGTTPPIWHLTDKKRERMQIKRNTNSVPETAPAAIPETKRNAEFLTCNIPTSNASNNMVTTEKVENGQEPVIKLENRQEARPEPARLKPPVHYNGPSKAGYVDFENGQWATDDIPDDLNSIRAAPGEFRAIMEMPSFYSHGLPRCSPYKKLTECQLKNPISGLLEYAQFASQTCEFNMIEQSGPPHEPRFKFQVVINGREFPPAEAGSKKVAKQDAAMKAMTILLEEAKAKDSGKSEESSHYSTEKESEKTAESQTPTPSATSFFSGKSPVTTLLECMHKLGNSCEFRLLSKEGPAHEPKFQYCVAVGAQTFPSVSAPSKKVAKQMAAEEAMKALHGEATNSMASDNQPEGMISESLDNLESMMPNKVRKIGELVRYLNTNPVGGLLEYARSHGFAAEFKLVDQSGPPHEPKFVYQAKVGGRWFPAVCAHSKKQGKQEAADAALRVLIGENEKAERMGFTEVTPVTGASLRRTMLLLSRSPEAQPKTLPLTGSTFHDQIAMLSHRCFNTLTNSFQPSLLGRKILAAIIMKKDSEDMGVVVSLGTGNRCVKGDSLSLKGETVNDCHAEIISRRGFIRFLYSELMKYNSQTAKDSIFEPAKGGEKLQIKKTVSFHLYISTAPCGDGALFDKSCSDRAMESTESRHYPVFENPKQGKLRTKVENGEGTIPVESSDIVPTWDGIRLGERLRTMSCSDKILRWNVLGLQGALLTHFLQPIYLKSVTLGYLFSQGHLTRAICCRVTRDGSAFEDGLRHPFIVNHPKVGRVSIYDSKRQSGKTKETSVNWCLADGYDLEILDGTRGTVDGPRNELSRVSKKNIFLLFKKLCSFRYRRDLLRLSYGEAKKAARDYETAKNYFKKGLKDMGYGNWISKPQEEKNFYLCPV
Assay: affinity purification with mass spectrometry; GFP-trap beads on lysate of HeLa Flp-In T-REx cells expressing ADAR1p110-GFP, non-denaturing conditions; lysis buffer 10 mM Tris/Cl pH 7.5, 150 mM NaCl, 0.5 mM EDTA, 0.5% Triton X, with 250 units Benzonase; 4 h at 4 °C; pH elution; label-free quantitative proteomics; GFP-expressing cells as control

Sequences of proteins named here, by UniProt entry; tags and fusion partners are left off.
UniProt P62318: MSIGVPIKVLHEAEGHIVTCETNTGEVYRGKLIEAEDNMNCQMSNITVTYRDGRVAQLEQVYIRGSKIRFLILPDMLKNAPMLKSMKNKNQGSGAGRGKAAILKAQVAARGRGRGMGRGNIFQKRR
UniProt P62308: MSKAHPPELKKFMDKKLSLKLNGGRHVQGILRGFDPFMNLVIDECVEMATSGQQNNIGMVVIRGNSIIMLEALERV
UniProt O43143: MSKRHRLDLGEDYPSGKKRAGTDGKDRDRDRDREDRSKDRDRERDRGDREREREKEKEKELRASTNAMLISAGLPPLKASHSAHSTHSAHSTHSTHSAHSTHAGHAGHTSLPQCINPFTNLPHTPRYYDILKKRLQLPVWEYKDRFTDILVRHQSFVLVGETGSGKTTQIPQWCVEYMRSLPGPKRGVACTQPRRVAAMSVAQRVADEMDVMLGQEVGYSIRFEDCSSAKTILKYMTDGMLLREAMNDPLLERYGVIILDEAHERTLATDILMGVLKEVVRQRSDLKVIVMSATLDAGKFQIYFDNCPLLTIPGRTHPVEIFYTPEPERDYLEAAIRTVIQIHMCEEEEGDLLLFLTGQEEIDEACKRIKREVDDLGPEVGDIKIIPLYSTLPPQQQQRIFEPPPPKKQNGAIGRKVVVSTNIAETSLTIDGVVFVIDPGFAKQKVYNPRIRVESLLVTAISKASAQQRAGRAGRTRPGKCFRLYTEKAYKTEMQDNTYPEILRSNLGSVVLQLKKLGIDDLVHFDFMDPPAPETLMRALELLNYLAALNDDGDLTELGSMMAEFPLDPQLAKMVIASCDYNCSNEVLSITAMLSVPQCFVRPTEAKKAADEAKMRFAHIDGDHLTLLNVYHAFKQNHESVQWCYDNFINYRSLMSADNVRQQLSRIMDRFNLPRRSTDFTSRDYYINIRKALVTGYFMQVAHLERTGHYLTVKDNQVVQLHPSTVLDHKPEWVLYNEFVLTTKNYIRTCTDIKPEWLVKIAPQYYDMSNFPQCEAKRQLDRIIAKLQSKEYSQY
UniProt Q13435: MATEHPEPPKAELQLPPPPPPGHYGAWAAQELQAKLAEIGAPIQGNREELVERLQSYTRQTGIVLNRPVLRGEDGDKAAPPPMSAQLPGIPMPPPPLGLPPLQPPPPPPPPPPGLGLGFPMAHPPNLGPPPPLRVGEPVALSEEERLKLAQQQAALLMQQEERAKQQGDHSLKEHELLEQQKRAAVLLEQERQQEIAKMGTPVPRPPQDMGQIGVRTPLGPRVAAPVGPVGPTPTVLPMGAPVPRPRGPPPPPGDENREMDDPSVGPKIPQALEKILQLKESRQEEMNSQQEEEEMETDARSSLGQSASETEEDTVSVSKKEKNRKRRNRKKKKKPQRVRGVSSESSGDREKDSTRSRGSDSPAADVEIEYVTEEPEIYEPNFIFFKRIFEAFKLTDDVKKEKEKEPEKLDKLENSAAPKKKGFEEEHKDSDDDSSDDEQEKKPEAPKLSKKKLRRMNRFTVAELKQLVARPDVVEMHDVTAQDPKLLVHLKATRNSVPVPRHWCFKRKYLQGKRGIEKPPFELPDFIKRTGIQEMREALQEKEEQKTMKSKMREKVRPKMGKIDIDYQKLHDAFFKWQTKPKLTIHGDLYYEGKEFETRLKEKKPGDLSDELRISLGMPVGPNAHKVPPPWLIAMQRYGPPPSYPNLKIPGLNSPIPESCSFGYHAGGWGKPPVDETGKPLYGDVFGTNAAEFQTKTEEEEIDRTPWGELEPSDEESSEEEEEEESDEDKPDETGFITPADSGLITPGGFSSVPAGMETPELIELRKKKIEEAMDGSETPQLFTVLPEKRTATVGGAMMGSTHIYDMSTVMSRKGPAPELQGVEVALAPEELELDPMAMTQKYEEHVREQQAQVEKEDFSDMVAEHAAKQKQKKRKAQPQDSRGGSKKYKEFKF
UniProt Q15393: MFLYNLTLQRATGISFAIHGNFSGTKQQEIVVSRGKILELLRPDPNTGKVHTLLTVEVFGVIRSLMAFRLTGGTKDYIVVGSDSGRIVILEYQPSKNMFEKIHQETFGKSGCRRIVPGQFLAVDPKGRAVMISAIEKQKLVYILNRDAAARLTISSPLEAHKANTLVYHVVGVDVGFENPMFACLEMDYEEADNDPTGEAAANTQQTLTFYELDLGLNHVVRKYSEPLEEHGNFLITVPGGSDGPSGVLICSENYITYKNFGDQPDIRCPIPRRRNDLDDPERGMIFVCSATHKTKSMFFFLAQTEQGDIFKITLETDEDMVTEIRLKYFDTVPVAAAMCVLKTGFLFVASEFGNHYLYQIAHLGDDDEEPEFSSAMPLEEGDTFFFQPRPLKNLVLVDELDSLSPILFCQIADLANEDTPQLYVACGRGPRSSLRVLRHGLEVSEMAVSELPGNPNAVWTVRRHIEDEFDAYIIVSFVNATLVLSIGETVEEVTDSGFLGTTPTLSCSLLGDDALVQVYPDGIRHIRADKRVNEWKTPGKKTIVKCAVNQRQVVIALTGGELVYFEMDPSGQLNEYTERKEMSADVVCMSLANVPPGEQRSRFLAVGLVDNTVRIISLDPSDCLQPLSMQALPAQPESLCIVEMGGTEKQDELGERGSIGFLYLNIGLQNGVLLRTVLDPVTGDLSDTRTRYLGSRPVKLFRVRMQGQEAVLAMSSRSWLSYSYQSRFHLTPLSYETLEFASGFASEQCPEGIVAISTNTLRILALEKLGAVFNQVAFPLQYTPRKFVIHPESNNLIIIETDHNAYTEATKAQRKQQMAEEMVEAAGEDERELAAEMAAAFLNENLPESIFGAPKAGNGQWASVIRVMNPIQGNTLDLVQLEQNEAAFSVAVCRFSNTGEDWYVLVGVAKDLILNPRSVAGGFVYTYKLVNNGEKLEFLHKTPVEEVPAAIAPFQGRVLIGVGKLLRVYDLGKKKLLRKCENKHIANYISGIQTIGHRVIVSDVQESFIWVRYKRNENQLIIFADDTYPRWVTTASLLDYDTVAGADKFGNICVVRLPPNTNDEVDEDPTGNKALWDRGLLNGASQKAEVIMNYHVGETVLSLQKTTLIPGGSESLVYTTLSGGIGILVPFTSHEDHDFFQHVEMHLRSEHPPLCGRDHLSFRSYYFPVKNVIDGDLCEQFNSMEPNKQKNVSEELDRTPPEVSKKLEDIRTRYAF
UniProt P62304: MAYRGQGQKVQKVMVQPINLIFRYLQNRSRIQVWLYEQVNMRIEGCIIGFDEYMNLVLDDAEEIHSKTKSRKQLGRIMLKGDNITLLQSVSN

Molecule: SNRPD3 (from UniProt P62318 1-126)
binding: binds

Molecule: SNRPG (from UniProt P62308 1-76)
binding: binds

B1: STRBP (protein, UniProt Q96SI9 1-672)
chain: MRSIRSFANDDRHVMVKHSTIYPSPEELEAVQNMVSTVECALKHVSDWLDETNKGTKTEGETEVKKDEAGENYSKDQGGRTLCGVMRIGLVAKGLLIKDDMDLELVLMCKDKPTETLLNTVKDNLPIQIQKLTEEKYQVEQCVNEASIIIRNTKEPTLTLKVILTSPLIRDELEKKDGENVSMKDPPDLLDRQKCLNALASLRHAKWFQARANGLKSCVIVLRILRDLCNRVPTWAPLKGWPLELICEKSIGTCNRPLGAGEALRRVMECLASGILLPGGPGLHDPCERDPTDALSYMTIQQKEDITHSAQHALRLSAFGQIYKVLEMDPLPSSKPFQKYSWSVTDKEGAGSSALKRPFEDGLGDDKDPNKKMKRNLRKILDSKAIDLMNALMRLNQIRPGLQYKLLSQSGPVHAPVFTMSVDVDGTTYEASGPSKKTAKLHVAVKVLQAMGYPTGFDADIECMSSDEKSDNESKNETVSSNSSNNTGNSTTETSSTLEVRTQGPILTASGKNPVMELNEKRRGLKYELISETGGSHDKRFVMEVEVDGQKFRGAGPNKKVAKASAALAALEKLFSGPNAANNKKKKIIPQAKGVVNTAVSAAVQAVRGRGRGTLTRGAFVGATAAPGYIAPGYGTPYGYSTAAPAYGLPKRMVLLPVMKFPTYPVPHYSFF
binding: binds

Results, then the molecule that gave them:

binding: binds
Molecule: DHX15 (from UniProt O43143 1-795)

binding: binds
Molecule: SF3B2 (from UniProt Q13435 1-895)

binding: binds
Molecule: SF3B3 (from UniProt Q15393 1-1217)

binding: binds
Molecule: SNRPE (from UniProt P62304 1-92)

binding: binds
B2: HNRNPL (protein, UniProt P14866 1-589)
chain: MSRRLLPRAEKRRRRLEQRQQPDEQRRRSGAMVKMAAAGGGGGGGRYYGGGSEGGRAPKRLKTDNAGDQHGGGGGGGGGAGAAGGGGGGENYDDPHKTPASPVVHIRGLIDGVVEADLVEALQEFGPISYVVVMPKKRQALVEFEDVLGACNAVNYAADNQIYIAGHPAFVNYSTSQKISRPGDSDDSRSVNSVLLFTILNPIYSITTDVLYTICNPCGPVQRIVIFRKNGVQAMVEFDSVQSAQRAKASLNGADIYSGCCTLKIEYAKPTRLNVFKNDQDTWDYTNPNLSGQGDPGSNPNKRQRQPPLLGDHPAEYGGPHGGYHSHYHDEGYGPPPPHYEGRRMGPPVGGHRRGPSRYGPQYGHPPPPPPPPEYGPHADSPVLMVYGLDQSKMNCDRVFNVFCLYGNVEKVKFMKSKPGAAMVEMADGYAVDRAITHLNNNFMFGQKLNVCVSKQPAIMPGQSYGLEDGSCSYKDFSESRNNRFSTPEQAAKNRIQHPSNVLHFFNAPLEVTEENFFEICDELGVKRPSSVKVFSGKSERSSSGLLEWESKSDALETLGFLNHYQMKNPNGPYPYTLKLCFSTAQHAS

From paper PMC13164374
